Assay results as given in patent US7312193B2, “Calcium phosphopeptide complexes” (The University of Melbourne, priority 1997, dated 2007).
Square brackets hold non-standard residues; d marks the D form. Ends that are not written are not given here. pS = N[C@@H](COP(=O)(O)O)C(=O)O

assay: CPP and synthetic peptide binding to HA at 37° C.
Source text: Similarly, we investigated the adsorption of the CPP and synthetic homologues and analogues onto HA (Table 2).

Substance | Molecular Area
AcGlu-Ser(P)-Ile-Ser(P)-Ser(P)-Ser(P)-Glu-GluNHMe [αs1(63-70)] | 3.56 nm^2
DΣΣEE | 2.04 nm^2
EΣΣEE | 1.74 nm^2
QMEAEΣIΣΣΣEEIVPNΣVEQK [αs1(59-79), tryptic casein phosphopeptide] | 4.75 nm^2
TθθEE | 3.03 nm^2
[pS][pS][pS]EE [ΣΣΣEE] | 3.27 nm^2
θTθEE | 3.77 nm^2
θθTEE | 3.61 nm^2
